The record followed here is PMC7581431.

Chains of the proteins cited; added tags and fusions are not shown.
UniProt Q99MH6: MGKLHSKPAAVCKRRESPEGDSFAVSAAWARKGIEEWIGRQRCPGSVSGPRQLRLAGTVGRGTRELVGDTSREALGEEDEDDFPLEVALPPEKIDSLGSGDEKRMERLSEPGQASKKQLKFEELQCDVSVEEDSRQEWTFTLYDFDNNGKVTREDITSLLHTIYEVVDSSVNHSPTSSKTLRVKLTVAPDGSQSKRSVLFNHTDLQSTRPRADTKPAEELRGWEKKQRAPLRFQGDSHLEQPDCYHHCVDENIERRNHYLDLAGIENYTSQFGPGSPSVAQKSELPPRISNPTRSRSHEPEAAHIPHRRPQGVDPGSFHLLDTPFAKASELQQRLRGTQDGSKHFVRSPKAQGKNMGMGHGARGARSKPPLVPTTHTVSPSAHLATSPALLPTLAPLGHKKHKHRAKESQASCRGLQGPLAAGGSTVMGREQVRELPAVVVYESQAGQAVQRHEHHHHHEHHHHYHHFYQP
UniProt Q9Y2T1: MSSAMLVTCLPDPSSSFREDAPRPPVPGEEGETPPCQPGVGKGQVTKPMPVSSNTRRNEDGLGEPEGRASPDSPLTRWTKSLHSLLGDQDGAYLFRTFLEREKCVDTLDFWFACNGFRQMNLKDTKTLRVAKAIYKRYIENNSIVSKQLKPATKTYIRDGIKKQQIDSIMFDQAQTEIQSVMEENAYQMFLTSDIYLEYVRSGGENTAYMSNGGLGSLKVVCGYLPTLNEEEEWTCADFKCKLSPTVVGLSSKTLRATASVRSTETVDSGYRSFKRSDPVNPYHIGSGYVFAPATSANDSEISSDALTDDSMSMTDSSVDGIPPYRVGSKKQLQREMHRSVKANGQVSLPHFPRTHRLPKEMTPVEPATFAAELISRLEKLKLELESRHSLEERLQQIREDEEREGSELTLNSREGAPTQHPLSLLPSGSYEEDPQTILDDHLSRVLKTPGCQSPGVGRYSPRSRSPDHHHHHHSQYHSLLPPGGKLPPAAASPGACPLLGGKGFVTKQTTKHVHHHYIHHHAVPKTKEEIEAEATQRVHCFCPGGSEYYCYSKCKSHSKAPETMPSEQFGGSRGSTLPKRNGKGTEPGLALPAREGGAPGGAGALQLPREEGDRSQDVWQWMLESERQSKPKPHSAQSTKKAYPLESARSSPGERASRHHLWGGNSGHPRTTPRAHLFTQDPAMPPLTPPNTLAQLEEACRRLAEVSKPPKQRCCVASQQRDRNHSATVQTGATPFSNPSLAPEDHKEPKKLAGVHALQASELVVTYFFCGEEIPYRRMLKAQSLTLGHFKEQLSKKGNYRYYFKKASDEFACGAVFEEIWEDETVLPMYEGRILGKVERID
UniProt O15169: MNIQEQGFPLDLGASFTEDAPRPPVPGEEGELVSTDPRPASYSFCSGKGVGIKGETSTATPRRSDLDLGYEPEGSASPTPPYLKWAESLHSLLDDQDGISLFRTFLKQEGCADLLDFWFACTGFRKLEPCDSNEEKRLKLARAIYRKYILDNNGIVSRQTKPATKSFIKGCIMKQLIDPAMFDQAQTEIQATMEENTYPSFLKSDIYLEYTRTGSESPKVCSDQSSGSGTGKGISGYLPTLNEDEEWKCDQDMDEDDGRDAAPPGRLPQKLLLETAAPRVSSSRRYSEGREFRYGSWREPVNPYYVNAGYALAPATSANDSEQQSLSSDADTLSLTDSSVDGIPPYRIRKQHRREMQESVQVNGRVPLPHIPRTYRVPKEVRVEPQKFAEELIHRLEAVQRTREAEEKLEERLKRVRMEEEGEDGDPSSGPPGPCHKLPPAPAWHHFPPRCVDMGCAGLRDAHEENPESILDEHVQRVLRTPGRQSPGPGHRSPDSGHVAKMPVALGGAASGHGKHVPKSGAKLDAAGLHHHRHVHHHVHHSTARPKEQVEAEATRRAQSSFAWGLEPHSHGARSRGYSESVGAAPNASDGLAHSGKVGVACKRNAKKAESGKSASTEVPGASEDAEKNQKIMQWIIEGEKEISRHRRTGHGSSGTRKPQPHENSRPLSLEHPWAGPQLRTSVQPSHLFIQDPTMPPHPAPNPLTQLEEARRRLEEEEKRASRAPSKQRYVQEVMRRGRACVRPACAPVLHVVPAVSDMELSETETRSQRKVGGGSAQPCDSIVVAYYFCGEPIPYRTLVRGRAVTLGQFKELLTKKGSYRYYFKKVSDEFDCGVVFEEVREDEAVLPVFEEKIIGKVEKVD

The target of one experiment is HA-Nkd1 (murine) (UniProt Q99MH6). Kind of experiment: Western blot of SDS-resistant high-molecular weight (HMW) aggregates; overexpressed Nkd1 in transfected HEK293T cells, alone or with Flag-DVL2; HMW aggregates resistant to boiling in SDS. (In general: Immunoblotting shows a protein as a band on a membrane.)
In another experiment the target is Flag-Axin2 (UniProt Q9Y2T1). Kind of experiment: co-IP; co-expressed proteins in transfected HEK293T cells (control or DVL null); lysis 24-36 hr post-transfection in 20 mM Tris-HCl pH 7.4, 200 mM NaCl, 10% glycerol, 0.2% Triton X-100; Flag- or GFP-trap affinity gel, 90 min to overnight at 4°C; eluted by boiling in LDS sample buffer.
A further experiment deals with Flag-Axin1 (UniProt O15169). The experiment is described as above.
For another experiment, the target named is Flag-p62 (UniProt Q13501). The experiment is described as above.
For another experiment, the target named is Axin1-GFP (UniProt O15169). The description is as above.

These are yes or no findings as the source states them, for the method shown. For some assays here: Binding seen in cells or lysates may run through a third protein. Some binding calls cover weakened binding; strength is not graded here.

With HA-Nkd1 (from UniProt Q99MH6 1-471), the binding entry is listed as “binds” in the experiment with HA-Nkd1 (murine), “no binding” with Flag-Axin2, “binds” in the experiment with Flag-Axin1 and “binds” in the experiment with Flag-p62.
Turning to Flag-Nkd1 (from UniProt Q99MH6 1-471), in the experiment with Axin1-GFP, the binding result is listed as “binds”.
